According to article PMC9044575:
No constants are given. Whether binding was seen depends on the method and setting. Binding seen in cells or lysates may run through a third protein. Some results given as binding are weak or reduced against the parent protein; the word gives no strength. Blank lines part the entries; values can stand above or below the binder they belong to.

Tests used:
[1] = target: T1, Developmental pluripotency-associated 3 (mouse (endogenous in mouse ES cells)) (UniProt Q8QZY3); experiment: co-IP; mouse ES cells; immunoprecipitation with anti-Nanog antibody and with anti-Dppa3 antibody, blot
T1 sequence: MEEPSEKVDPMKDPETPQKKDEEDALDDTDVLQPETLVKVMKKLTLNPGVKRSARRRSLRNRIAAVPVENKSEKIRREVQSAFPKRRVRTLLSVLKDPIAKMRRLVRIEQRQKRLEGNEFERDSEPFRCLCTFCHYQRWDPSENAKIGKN

[2] = target: T2, Nanog (mouse (endogenous in mouse ES cells)) (UniProt Q80Z64); experiment: as above
T2 sequence: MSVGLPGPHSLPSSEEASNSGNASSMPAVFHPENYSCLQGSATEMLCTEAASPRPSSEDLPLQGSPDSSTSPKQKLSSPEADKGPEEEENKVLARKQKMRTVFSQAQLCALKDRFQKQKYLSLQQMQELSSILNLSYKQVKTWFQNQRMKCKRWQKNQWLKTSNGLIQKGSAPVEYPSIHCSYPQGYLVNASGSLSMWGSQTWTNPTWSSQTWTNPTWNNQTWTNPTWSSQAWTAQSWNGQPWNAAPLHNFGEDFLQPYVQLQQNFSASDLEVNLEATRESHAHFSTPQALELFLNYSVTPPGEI

binding [1]: binds
B1: Nanog (protein, UniProt Q80Z64 1-305)
chain: T2 sequence

binding [2]: binds
B2: Developmental pluripotency-associated 3 (protein, UniProt Q8QZY3 1-150)
chain: T1 sequence
